Measured data: PubChem BioAssay AID686938 (Drosophila RNAi Screening Center, 2013)
The screen tested about 23,000 reagents; below is an unselected part of those that have a named target and a result. Over the whole deposit, 75 (0.33%) got an active call. 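Raw plate signals without normalisation; calls rest on plate z-scores that were not deposited; ratio present for only 364 wells.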 Unmarked entries are inactive. A plus sign joins genes that one reagent is predicted to hit. Reagent sequences are not shown. Not stated in the record: the dose of the treatment.

Test: 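Fly genes required for calcium entry once internal stores are emptied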 (primary screen)
Cells: Drosophila S2R+ cells
Knock-down reagent: long dsRNA against Drosophila genes, about 0.25 µg dsRNA per well, roughly 10,000 cells
Time to read-out: 5 days of knock-down before the calcium assay
Treatment: thapsigargin (SERCA pump blocker) to empty calcium stores; entry signal taken 4 min after adding it
Detection: 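Per-well fluo-4 fluorescence in two replicates, unnormalised, measured in resting cells and 4 min after store depletion by the SERCA blocker thapsigargin; ratio of the two present in few wells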
Direction: calcium entry signal: higher = stronger calcium signal after store depletion; entry to resting ratio: higher = more calcium entry relative to resting level; resting calcium signal: higher = higher resting calcium signal
Units: calcium entry signal in fluorescence units; resting calcium signal in fluorescence units
Rule for the call: 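Hit if the duplicate-averaged plate z-score for entry over resting signal is under −3; wells with weak total dye signal (Fmax z < −2) or more than 5 off-targets removed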
Calls: active = strongly reduced calcium entry; inactive = no strong reduction

| calcium entry signal, replicate 1 | calcium entry signal, replicate 2 | entry to resting ratio | resting calcium signal, replicate 1 | resting calcium signal, replicate 2 | gene knocked down | dsRNA |
| --- | --- | --- | --- | --- | --- | --- |
| 3.91e7 | 4.10e7 | – | 1.88e7 | 1.76e7 | spaw (spacewatch) | DRSC06824 |
| 2.62e7 | 3.42e7 | – | 1.07e7 | 1.47e7 | mRpL44 (mitochondrial ribosomal protein L44) | DRSC12306 |
| 2.96e7 | 4.30e7 | – | 1.23e7 | 1.97e7 | CG6791 | DRSC16118 |
| 2.76e7 | 3.14e7 | – | 1.41e7 | 1.51e7 | LysD + LysC (retired record) | DRSC08674 |
| 4.29e7 | 4.00e7 | – | 2.30e7 | 1.90e7 | LysD + LysC (retired record) | DRSC22743 |
| 5.27e7 | – | – | 2.83e7 | – | her (hermaphrodite) | DRSC03543 |
| 4.90e7 | 4.11e7 | – | 2.30e7 | 1.86e7 | clos (closca) | DRSC06240 |
| 5.06e7 | 5.07e7 | – | 2.53e7 | 1.79e7 | clos (closca) | DRSC06241 |
| 4.04e7 | 4.91e7 | – | 2.06e7 | 2.24e7 | clos (closca) | DRSC06778 |
| 2.42e7 | 4.41e7 | – | 1.17e7 | 2.04e7 | clos (closca) | DRSC21857 |
| 4.54e7 | 3.40e7 | – | 2.31e7 | 1.45e7 | clos (closca) | DRSC22942 |
| 2.44e7 | 2.45e7 | – | 1.06e7 | 1.15e7 | CG6550 | DRSC07001 |
| 5.02e7 | 3.68e7 | – | 3.45e7 | 1.55e7 | Chd64 | DRSC08649 |

Next part; the last 5 above are carried over.
| calcium entry signal, replicate 1 | calcium entry signal, replicate 2 | entry to resting ratio | resting calcium signal, replicate 1 | resting calcium signal, replicate 2 | gene knocked down | dsRNA |
| --- | --- | --- | --- | --- | --- | --- |
| 4.04e7 | 4.91e7 | – | 2.06e7 | 2.24e7 | clos (closca) | DRSC06778 |
| 2.42e7 | 4.41e7 | – | 1.17e7 | 2.04e7 | clos (closca) | DRSC21857 |
| 4.54e7 | 3.40e7 | – | 2.31e7 | 1.45e7 | clos (closca) | DRSC22942 |
| 2.44e7 | 2.45e7 | – | 1.06e7 | 1.15e7 | CG6550 | DRSC07001 |
| 5.02e7 | 3.68e7 | – | 3.45e7 | 1.55e7 | Chd64 | DRSC08649 |
| 5.26e7 | 4.22e7 | – | 2.47e7 | 1.85e7 | Ude (Uracil-DNA degrading factor) | DRSC15324 |
| 5.21e7 | 3.74e7 | – | 2.48e7 | 1.80e7 | Obp83g (Odorant-binding protein 83g) | DRSC12269 |
| 3.90e7 | – | – | 2.05e7 | – | CG8892 | DRSC03121 |
| 4.00e7 | 5.25e7 | – | 2.03e7 | 2.11e7 | ro (rough) | DRSC17046 |
| 4.58e7 | 4.78e7 | – | 2.11e7 | 2.01e7 | CG30283 | DRSC04071 |
| 3.82e7 | 3.60e7 | – | 2.02e7 | 1.58e7 | eEF1alpha2 (eukaryotic translation elongation factor 1 alpha 2) | DRSC14079 |
| 1.64e7 | 2.31e7 | 1.7 | 9.87e6 | 1.11e7 | eEF1alpha2 (eukaryotic translation elongation factor 1 alpha 2) | DRSC16658 |
| 2.35e7 | 4.33e7 | – | 1.26e7 | 2.02e7 | Dad1 (Defender against apoptotic cell death 1) | DRSC02263 |
| 4.25e7 | 4.94e7 | – | 1.95e7 | 3.51e7 | Uggt (UDP-glucose-glycoprotein glucosyltransferase) | DRSC11315 |
| 3.12e7 | 2.75e7 | – | 1.46e7 | 1.20e7 | CG13775 | DRSC02279 |
| 3.10e7 | 2.65e7 | – | 1.44e7 | 1.18e7 | CG14014 | DRSC02345 |
| 3.32e7 | 4.04e7 | – | 1.64e7 | 1.69e7 | CG7196 (retired record) | DRSC01000 |
| 2.20e7 | 3.44e7 | – | 1.07e7 | 1.57e7 | CG7196 (retired record) | DRSC03023 |
| 3.64e7 | 3.63e7 | – | 1.89e7 | 1.70e7 | JMJD5 (Jumonji domain containing 5) | DRSC08372 |
| 3.47e7 | 1.70e7 | – | 1.58e7 | 8.82e6 | Or33a (Odorant receptor 33a) | DRSC03386 |
| 3.19e7 | 4.61e7 | – | 2.06e7 | 3.14e7 | CG9667 | DRSC16535 |
| 4.13e7 | 5.08e7 | – | 1.92e7 | 3.50e7 | Gel (Gelsolin) | DRSC12350 |
| 2.42e7 | – | – | 1.46e7 | – | Rrp4 | DRSC04434 |
| 2.38e7 | 3.81e7 | – | 1.18e7 | 1.65e7 | regucalcin | DRSC18908 |
| 4.17e7 | 4.70e7 | – | 1.98e7 | 2.11e7 | regucalcin | DRSC20366 |
| 1.74e7 | 3.77e7 | – | 8.73e6 | 1.65e7 | COX6AL2 + Ir75d | DRSC10081 |
| 3.81e7 | 4.84e7 | – | 1.60e7 | 2.06e7 | SoYb | DRSC02901 |
| 2.99e7 | 2.97e7 | – | 1.44e7 | 1.47e7 | kraken | DRSC00824 |
| 2.46e7 | 3.49e7 | – | 1.22e7 | 1.76e7 | vas (retired record) | DRSC22007 |
| 4.88e7 | 7.58e7 | – | 2.40e7 | 7.98e7 | SF2 (Splicing factor 2) | DRSC16845 |
| 3.78e7 | – | – | 2.08e7 | – | CG3557 | DRSC00614 |
| 4.03e7 | 4.65e7 | – | 1.90e7 | 6.89e7 | P5cr-2 (Pyrroline-5-carboxylate reductase-like 2) | DRSC15889 |
